Assay results from the supplement of paper PMC10849652.
The list shows a part of the results.

Protein sequences, listed by entry. Tags and fused reporters are not part of them. Lines headed by an entry give the natural chain unless they say otherwise; changes in a name come on top.
UniProt Q8TAD4: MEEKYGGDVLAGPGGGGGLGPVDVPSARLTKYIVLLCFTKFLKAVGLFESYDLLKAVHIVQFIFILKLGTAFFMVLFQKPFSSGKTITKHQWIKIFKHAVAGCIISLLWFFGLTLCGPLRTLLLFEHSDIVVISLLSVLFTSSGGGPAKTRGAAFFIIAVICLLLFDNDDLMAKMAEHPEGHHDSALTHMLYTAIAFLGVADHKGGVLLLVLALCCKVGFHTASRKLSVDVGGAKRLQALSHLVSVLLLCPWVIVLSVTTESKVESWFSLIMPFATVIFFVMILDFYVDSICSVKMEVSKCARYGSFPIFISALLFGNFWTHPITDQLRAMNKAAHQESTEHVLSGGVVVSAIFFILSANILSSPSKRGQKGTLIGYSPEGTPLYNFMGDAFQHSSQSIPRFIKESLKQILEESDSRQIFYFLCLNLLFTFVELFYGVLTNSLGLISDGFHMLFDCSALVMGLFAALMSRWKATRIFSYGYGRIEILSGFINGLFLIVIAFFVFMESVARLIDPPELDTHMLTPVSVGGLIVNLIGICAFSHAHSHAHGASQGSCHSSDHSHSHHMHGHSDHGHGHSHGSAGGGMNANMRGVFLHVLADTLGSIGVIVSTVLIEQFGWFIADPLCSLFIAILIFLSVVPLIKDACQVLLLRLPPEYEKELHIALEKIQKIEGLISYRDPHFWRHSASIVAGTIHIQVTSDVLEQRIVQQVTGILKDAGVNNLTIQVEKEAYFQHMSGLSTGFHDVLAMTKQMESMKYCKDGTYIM
UniProt P53007, whole entry, looked up: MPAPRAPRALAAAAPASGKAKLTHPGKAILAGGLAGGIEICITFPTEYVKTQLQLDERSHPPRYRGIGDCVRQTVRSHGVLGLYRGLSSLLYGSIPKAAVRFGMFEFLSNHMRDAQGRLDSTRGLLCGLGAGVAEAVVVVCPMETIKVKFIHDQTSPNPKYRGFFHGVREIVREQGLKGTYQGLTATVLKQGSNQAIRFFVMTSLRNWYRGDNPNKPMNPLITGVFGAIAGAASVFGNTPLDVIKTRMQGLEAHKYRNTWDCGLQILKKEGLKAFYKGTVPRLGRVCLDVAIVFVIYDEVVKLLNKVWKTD
UniProt Q9BWU0: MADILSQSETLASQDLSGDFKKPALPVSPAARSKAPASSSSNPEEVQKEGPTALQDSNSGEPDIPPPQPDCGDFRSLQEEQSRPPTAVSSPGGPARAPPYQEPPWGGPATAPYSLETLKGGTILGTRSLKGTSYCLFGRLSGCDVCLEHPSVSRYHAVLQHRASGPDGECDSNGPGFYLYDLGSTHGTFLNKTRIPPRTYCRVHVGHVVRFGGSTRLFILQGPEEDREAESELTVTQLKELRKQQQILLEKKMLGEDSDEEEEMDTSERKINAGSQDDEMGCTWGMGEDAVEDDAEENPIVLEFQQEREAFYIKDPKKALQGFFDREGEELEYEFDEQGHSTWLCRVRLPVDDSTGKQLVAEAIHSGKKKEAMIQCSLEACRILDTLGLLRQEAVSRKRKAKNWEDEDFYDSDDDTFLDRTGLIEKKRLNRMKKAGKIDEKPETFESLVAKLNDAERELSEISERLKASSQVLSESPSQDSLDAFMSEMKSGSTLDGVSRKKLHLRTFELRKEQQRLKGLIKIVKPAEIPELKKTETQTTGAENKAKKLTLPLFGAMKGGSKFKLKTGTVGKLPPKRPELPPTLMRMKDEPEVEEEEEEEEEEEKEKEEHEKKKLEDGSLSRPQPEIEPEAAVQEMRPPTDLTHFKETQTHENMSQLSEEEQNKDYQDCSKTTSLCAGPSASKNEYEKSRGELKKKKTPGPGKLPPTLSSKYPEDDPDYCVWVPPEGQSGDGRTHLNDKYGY
UniProt Q8TB61: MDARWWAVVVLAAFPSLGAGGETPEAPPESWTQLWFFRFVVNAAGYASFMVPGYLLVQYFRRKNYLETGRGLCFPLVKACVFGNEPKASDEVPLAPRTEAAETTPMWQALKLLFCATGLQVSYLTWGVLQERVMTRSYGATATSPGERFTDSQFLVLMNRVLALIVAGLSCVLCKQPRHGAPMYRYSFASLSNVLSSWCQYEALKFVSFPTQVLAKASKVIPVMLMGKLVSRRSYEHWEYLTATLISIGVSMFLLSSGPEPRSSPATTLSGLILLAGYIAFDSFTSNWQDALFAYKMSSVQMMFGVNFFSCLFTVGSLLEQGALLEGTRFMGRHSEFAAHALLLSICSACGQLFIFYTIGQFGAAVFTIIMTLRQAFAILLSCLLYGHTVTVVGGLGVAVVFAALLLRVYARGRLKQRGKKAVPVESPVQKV
UniProt Q6NUK1: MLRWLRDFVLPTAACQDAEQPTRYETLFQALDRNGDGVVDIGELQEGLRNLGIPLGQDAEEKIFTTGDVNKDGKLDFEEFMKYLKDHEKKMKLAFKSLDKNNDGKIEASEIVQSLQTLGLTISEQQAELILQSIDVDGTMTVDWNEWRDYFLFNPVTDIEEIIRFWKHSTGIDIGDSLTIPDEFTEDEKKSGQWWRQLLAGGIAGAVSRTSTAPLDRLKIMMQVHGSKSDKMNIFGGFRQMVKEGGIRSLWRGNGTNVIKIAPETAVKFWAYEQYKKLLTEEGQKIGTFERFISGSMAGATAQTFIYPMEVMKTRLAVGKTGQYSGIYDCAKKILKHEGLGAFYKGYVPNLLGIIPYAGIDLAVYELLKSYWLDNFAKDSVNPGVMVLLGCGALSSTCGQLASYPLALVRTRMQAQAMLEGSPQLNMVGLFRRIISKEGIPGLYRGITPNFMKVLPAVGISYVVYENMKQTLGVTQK
UniProt P16260: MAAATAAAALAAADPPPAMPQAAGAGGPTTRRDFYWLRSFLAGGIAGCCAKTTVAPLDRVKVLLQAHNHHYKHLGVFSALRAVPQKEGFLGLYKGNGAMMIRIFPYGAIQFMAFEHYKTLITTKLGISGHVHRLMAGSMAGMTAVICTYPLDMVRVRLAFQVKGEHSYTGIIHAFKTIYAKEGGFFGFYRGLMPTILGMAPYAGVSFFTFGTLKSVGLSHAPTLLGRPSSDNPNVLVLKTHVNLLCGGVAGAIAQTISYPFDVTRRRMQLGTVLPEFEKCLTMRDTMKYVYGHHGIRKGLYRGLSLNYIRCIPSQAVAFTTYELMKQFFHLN
UniProt Q00325: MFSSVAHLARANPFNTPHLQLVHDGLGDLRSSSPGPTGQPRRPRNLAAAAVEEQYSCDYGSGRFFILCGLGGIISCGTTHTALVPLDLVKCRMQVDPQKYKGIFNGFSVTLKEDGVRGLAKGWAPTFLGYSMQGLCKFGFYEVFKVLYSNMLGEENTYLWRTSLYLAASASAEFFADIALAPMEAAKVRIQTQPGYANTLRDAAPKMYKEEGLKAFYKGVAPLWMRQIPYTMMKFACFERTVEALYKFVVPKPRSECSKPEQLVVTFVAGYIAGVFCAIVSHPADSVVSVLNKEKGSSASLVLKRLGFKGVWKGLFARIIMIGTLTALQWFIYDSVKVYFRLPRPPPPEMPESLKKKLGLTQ
UniProt Q9H936: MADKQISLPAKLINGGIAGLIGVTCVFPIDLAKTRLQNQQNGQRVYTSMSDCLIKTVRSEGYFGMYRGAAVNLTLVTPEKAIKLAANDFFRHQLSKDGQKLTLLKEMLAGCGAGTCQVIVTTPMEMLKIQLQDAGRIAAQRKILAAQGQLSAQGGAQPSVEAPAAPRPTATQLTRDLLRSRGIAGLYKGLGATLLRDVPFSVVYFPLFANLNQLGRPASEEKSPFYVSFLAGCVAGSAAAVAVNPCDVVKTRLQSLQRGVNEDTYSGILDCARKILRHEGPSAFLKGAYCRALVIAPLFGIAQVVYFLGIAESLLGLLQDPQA
UniProt Q9BXS9: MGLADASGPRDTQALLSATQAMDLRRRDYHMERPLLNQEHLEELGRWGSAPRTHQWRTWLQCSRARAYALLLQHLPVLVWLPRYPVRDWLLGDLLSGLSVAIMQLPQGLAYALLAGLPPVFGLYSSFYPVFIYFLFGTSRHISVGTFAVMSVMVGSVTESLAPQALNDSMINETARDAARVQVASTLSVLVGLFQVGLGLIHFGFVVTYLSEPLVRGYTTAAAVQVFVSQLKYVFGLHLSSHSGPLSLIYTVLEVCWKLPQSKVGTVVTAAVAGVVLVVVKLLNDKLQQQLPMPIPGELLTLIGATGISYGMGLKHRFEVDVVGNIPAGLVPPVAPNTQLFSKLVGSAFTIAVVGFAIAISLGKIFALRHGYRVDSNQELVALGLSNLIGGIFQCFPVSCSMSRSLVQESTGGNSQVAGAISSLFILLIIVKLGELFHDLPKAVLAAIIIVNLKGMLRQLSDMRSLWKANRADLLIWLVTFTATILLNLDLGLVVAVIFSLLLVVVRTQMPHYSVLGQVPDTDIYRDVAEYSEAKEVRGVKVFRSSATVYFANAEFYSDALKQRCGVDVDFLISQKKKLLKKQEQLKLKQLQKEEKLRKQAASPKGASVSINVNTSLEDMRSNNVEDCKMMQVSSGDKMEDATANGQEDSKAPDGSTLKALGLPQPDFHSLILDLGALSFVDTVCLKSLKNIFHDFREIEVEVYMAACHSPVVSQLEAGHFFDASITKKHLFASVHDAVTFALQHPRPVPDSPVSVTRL
UniProt Q96H78: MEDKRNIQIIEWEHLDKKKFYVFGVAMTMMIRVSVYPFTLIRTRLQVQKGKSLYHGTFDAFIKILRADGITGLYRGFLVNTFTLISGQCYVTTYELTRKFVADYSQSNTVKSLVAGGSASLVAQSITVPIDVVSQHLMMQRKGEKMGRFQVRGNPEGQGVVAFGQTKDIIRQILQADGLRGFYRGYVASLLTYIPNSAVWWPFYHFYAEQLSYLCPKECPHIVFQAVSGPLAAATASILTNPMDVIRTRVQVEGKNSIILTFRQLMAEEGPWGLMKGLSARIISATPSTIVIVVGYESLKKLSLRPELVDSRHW
UniProt P53985: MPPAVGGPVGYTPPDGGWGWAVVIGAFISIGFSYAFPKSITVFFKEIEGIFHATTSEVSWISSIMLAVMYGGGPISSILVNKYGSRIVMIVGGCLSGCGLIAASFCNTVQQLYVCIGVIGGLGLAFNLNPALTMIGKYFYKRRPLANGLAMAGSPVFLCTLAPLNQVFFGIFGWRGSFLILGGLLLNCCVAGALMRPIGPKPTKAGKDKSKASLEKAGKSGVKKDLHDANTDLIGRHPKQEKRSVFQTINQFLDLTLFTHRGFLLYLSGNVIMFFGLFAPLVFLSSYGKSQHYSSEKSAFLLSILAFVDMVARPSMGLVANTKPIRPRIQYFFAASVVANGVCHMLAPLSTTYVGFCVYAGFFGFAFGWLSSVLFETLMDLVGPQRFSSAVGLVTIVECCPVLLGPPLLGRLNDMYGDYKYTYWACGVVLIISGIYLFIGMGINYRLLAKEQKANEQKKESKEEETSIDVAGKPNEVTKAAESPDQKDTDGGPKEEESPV
UniProt P05141: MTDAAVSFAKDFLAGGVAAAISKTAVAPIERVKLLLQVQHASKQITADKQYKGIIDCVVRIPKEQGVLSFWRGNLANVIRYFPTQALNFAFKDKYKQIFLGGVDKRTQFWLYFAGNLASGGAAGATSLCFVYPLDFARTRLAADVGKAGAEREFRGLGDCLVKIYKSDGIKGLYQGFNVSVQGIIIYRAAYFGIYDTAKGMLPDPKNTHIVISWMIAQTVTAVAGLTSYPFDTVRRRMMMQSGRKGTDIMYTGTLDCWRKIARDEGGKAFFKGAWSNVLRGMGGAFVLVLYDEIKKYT
UniProt Q9H0C2: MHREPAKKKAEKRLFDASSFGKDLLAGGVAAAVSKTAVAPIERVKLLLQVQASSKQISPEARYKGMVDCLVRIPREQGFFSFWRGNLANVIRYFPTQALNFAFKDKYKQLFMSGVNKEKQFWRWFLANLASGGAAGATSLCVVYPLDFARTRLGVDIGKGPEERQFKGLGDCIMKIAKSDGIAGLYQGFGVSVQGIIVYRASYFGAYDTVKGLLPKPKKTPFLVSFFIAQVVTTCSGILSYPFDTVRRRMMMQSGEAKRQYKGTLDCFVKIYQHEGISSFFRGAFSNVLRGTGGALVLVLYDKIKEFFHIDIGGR
UniProt Q92504: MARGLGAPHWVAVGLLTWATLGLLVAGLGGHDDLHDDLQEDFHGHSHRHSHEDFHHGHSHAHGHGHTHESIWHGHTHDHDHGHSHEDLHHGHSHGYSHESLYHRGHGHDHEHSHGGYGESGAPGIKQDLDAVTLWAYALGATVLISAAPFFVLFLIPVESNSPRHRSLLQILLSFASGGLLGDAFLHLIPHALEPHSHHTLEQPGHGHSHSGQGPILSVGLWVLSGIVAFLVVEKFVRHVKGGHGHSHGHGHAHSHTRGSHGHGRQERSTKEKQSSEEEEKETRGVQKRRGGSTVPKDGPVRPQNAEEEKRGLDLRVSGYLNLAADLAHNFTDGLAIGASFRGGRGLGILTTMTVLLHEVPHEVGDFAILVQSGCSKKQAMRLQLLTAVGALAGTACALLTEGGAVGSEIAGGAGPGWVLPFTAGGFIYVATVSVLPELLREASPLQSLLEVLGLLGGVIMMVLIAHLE
UniProt L0R6Q1: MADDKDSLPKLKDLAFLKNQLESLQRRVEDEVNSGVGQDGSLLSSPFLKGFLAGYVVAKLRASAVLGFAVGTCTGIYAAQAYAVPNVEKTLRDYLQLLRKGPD

compound: O=C(CCCCCCC(=O)Nc1ccccc1)NO [vorinostat]; test: log2 fold change, soluble protein after heating vs DMSO (PISA); higher = thermal stabilisation; K562 cells, 10 uM, 30 min; active = over 0.2 and 3.5 SD of the protein, either way, in both replicates (recomputed)
How it was run: (§1)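 Values are thermal stability changes relative to control samples and are taken from duplicates. They are stated as log2 fold changes. Before quantification by TMTpro 16plex LC-MS/MS with equalised channel sums, K562 cells at 2×10^6 cells/mL were treated with 10 μM compound for 30 min, heated in aliquots for 3 min across 48°C-58°C, pooled, extracted in PBS with 0.5% NP-40 at 4°C, and centrifuged at 21,000xg for 90 min to give the soluble supernatant.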

log2 fold change, inactive:
SLC39A10 (UniProt Q9ULF5) -0.005
SLC45A4 isoform 3 (UniProt Q5BKX6) -0.115
SLC3A2 isoform 3 (UniProt P08195) 0.003
SLC20A2 (UniProt Q08357) -0.083
SLC25A25 isoform 3 (UniProt Q6KCM7) -0.017
SLC39A6 (UniProt Q13433) 0.027
SLC30A5 (UniProt Q8TAD4) 0.025
SLC6A8 (UniProt P48029) -0.135
SLC25A1 (UniProt P53007) -0.033
SLC25A37 (UniProt Q9NYZ2) 0.044
SLC4A1AP (UniProt Q9BWU0) -0.01
SLC30A1 (UniProt Q9Y6M5) -0.012
SLC20A1 (UniProt Q8WUM9) -0.064
SLC5A6 (UniProt Q9Y289) -0.008
SLC35B2 (UniProt Q8TB61) -0.002
SLC35A2 isoform 4 (UniProt P78381) -0.034
SLC25A24 (UniProt Q6NUK1) -0.036
SLC1A4 (UniProt P43007) -0.07
SLC25A16 (UniProt P16260) 0.033
SLC25A3 isoform 2 (UniProt Q00325) -0.028
SLC25A22 (UniProt Q9H936) -0.064
SLC7A5 (UniProt Q01650) -0.08
SLC26A6 (UniProt Q9BXS9) -0.234
SLC25A11 (UniProt Q02978) -0.017
SLC2A3 (UniProt P11169) 0.015
SLC25A44 (UniProt Q96H78) -0.034
SLC16A1 (UniProt P53985) 0.019
SLC25A5 (UniProt P05141) 0.001
SLC29A1 isoform 2 (UniProt Q99808) 0.048
SLC25A51 (UniProt Q9H1U9) -0.093
SLC38A10 (UniProt Q9HBR0) 0.029
SLC25A31 (UniProt Q9H0C2) -0.01
SLC25A40 (UniProt Q8TBP6) 0.04
SLC39A8 (UniProt Q9C0K1) 0
SLC39A7 (UniProt Q92504) 0.077
SLC29A2 (UniProt Q14542) 0.046
SLC39A14 (UniProt Q15043) -0.026
SLC35A4 (UniProt L0R6Q1) -0.082

compound: O=C(CCCCCCNC(=O)c1cnc(N(c2ccccc2)c2ccccc2Cl)nc1)NO [citarinostat]; test: as above
How it was run: as §1

log2 fold change, inactive:
SLC39A10 (UniProt Q9ULF5) -0.021
SLC45A4 isoform 3 (UniProt Q5BKX6) 0.111
SLC3A2 isoform 3 (UniProt P08195) 0.038
SLC20A2 (UniProt Q08357) -0.033
SLC25A25 isoform 3 (UniProt Q6KCM7) 0.008
SLC39A6 (UniProt Q13433) 0.019
SLC30A5 (UniProt Q8TAD4) 0.003
SLC6A8 (UniProt P48029) -0.045
SLC25A1 (UniProt P53007) 0.032
SLC25A37 (UniProt Q9NYZ2) -0.002
SLC4A1AP (UniProt Q9BWU0) 0.059
SLC30A1 (UniProt Q9Y6M5) 0.02
SLC20A1 (UniProt Q8WUM9) -0.015
SLC5A6 (UniProt Q9Y289) -0.058
SLC35B2 (UniProt Q8TB61) 0.016
SLC35A2 isoform 4 (UniProt P78381) -0.004
SLC25A24 (UniProt Q6NUK1) 0.005
SLC1A4 (UniProt P43007) 0.055
SLC25A16 (UniProt P16260) -0.035
SLC25A3 isoform 2 (UniProt Q00325) -0.011
SLC25A22 (UniProt Q9H936) 0.021
SLC7A5 (UniProt Q01650) -0.018
SLC26A6 (UniProt Q9BXS9) -0.056
SLC25A11 (UniProt Q02978) 0.028
SLC2A3 (UniProt P11169) 0.035
SLC25A44 (UniProt Q96H78) 0
SLC16A1 (UniProt P53985) -0.221
SLC25A5 (UniProt P05141) -0.04
SLC29A1 isoform 2 (UniProt Q99808) 0.023
SLC25A51 (UniProt Q9H1U9) 0.061
SLC38A10 (UniProt Q9HBR0) 0.007
SLC25A31 (UniProt Q9H0C2) 0.049
SLC25A40 (UniProt Q8TBP6) 0.033
SLC39A8 (UniProt Q9C0K1) -0.027
SLC39A7 (UniProt Q92504) -0.015
SLC29A2 (UniProt Q14542) 0.017
SLC39A14 (UniProt Q15043) 0.022
SLC35A4 (UniProt L0R6Q1) 0.021
